This note sets out measurements from publication PMC8551525.

By UniProt entry, the sequences of proteins in these tests, tags left out. Residues count along the entry.
UniProt P12277: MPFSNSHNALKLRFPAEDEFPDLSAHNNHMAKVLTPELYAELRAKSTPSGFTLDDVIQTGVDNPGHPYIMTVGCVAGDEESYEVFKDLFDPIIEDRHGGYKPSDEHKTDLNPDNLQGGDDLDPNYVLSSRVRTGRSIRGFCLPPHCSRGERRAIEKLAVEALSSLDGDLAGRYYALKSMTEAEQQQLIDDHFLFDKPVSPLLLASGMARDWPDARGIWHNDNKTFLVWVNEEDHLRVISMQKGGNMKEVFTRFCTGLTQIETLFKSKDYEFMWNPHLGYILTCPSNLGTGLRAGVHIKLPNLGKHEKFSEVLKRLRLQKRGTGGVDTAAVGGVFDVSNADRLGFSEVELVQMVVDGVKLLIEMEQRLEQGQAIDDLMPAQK
UniProt P31749, residues 2-446: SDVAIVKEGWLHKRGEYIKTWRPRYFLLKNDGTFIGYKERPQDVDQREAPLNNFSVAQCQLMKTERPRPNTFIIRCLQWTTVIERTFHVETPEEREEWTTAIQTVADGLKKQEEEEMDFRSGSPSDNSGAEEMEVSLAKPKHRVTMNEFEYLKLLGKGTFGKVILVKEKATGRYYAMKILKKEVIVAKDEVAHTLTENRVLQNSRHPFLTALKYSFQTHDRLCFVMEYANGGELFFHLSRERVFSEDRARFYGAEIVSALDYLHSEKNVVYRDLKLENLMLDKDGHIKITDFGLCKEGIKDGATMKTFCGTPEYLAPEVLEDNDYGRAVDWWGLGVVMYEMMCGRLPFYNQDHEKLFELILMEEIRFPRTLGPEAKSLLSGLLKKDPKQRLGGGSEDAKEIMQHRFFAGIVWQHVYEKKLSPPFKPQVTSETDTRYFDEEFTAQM

The target of this test is His-tagged recombinant human CKB protein (human) (UniProt P12277). Description: co-IP; 2ug purified his-AKT1 and his-CKB incubated at 4°C for 2h; anti-CKB antibody or rabbit IgG isotype control overnight at 4°C; Protein A/G agarose; immunoblot for AKT; both purified. In general terms: A western blot detects proteins with antibodies after separation by electrophoresis.

These are yes or no findings as the source states them, for the method shown. Some results given as binding are weak or reduced against the parent protein; the word gives no strength.

As for “His-tagged recombinant human AKT1 protein (from UniProt P31749 2-446)”, the binding result is “binds”.
